The experiment concerns P388 leukemia ip, CD2F1 mice, survival T/C. Briefly: NCI In Vivo Anticancer Drug Screen. Data for tumor model P388 Leukemia (intraperitoneal) in CD2F1 (CDF1) mice. The following applies: T/C endpoint: median survival time, higher T/C = longer survival.
[1] abbreviates: dose: 400.0 mg/kg/injection, schedule: Q01DX001 (ip), vehicle: saline with Tween-80.
Setting [2] is: dose: 25.0 mg/kg/injection, schedule: Q01DX009 (ip), vehicle: other.
[3] abbreviates: dose: 50.0 mg/kg/injection, schedule: Q01DX009 (ip), vehicle: other.
The mark [4] stands for this setting: dose: 100.0 mg/kg/injection, schedule: Q01DX001 (ip), vehicle: saline with Tween-80.
Where [5] appears, read: dose: 200.0 mg/kg/injection, schedule: Q01DX001 (ip), vehicle: saline with Tween-80.
[6] abbreviates: dose: 200.0 mg/kg/injection, schedule: Q04DX002 (ip), vehicle: saline with Tween-80.
[7] abbreviates: dose: 400.0 mg/kg/injection, schedule: Q04DX002 (ip), vehicle: saline with Tween-80.
Setting [8] is: dose: 200.0 mg/kg/injection, schedule: Q01DX005 (ip), vehicle: Klucel (hydroxypropylcellulose) (HPC).

The list shows only some results of the screen, not a fair sample: it gathers tests that were run many times, whatever their T/C, doses with no T/C, and many T/C values between a quarter and a half above the control. Further doses and runs are listed elsewhere. T/C gives the treated animals as a percentage of the vehicle group. Some entries give survivors of the animals treated and no T/C: the source files T/C as zero there, which appears to mark a toxic dose or a test without result, not a measured value. Some doses without a T/C left all or most animals alive at the check, yet need not have been tolerated: survival well below the control is almost never listed, so the zero probably covers shortened survival too. Survivors were counted at the toxicity check, usually on the fifth day, unless a day is given; later deaths do not show. Schedules are NCI's codes, taken here to give the interval after Q, in days (D) or hours (H), and the number of doses after X. Additions like (4×) stand for listed records that agree. Some doses were run more than once; their values stand side by side, smallest first. Some structures stand for samples that the source files as different forms (salt, stereo form or complex); doses refer to the form tested. For survival time, the PubChem record calls one and a half times the control and up active, and a quarter to a half above the control has no call in these data; cut-offs in other NCI protocols can differ. Some T/C values are followed by the survivors on the day toxicity was checked, most often the fifth; without a count, all were alive then.

On to `COC(=O)C1CC2C3C=CC(C4C(=O)NC(=O)C34)C12OC` (centres undefined), for which the survivor count under setting [1] is on record as 6 of 6.

As to `O=C(NC(Cc1cccc(F)c1)C(=O)O)c1ccccc1` (centres undefined), the survivor count was 1 of 6 and 5 of 6 under setting [2]; 1 of 6 under setting [3]; 0 of 6 (dose: 100.0 mg/kg/injection, schedule: Q01DX009 (ip), vehicle: other).

For the compound `CC[CH2][Sn](=[O])[c]1ccccc1`, where the note is “dose: 100.0 mg/kg/injection, schedule: Q01DX009 (ip), vehicle: saline”, the T/C was 130 and 134 % of control.

`C/C(=C\c1ccc(OCC(=O)O)c(Cl)c1Cl)[N+](=O)[O-]`: the T/C reads like this: (dose: 50.0 mg/kg/injection, schedule: Q01DX001 (ip), vehicle: saline with Tween-80) 92 [4 of 6 alive], 93, 98 [5 of 6 alive], 106 % of control; under setting [4], 127 % of control; under setting [5], 131 % of control [5 of 6 alive]. Further, the survivor count by setting is: under setting [4], 0 of 6 and 2 of 6; under setting [5], 0 of 6; under setting [1], 0 of 6 (2×).

Consider `CSc1nccn[n+]1C`, for which the survivor count (dose: 400.0 mg/kg/injection, schedule: Q01DX001 (ip), vehicle: saline) was 0 of 6.

Regarding `COc1cccc2c1C(=O)c1c(O)c3c(c(O)c1C2=O)C[C@@](O)(C(C)=O)C[C@@H]3OC1CC(N2CCOCC2)C(O)C(C)O1` (some centres undefined), the survivor count runs as follows: (dose: 1.56 mg/kg/injection, schedule: Q04DX003 (ip), vehicle: water) 3 of 6 on day 9; (dose: 3.13 mg/kg/injection, schedule: Q04DX003 (ip), vehicle: water) 0 of 6 on day 9; (dose: 6.25 mg/kg/injection, schedule: Q04DX003 (ip), vehicle: water) 0 of 6 on day 9 and 1 of 6 on day 9; (dose: 12.5 mg/kg/injection, schedule: Q04DX003 (ip), vehicle: water) 0 of 6 on day 9 and 1 of 6 on day 9; (dose: 25.0 mg/kg/injection, schedule: Q04DX003 (ip), vehicle: water) 0 of 6 on day 9 (2×); (dose: 50.0 mg/kg/injection, schedule: Q04DX003 (ip), vehicle: water) 0 of 6 on day 9 (2×). Under “dose: 100.0 mg/kg/injection, schedule: Q04DX003 (ip), vehicle: water”, the survivor count is 0 of 6 on day 9. Moreover, the T/C (dose: 200.0 micrograms/kg/injection, schedule: Q04DX003 (ip), vehicle: water) is 145 % of control.

As to `Cc1ccc(S(=O)(=O)N/N=C\c2cccnc2)cc1`, under “dose: 400.0 mg/kg/injection, schedule: Q01DX009 (ip), vehicle: other”, the T/C was 131 % of control.

On to `C[Si](C)(C)c1c[nH]c(=O)[nH]c1=O`, for which the survivor count runs as follows: (dose: 200.0 mg/kg/injection, schedule: Q01DX009 (ip), vehicle: saline with Tween-80) 4 of 5; (dose: 400.0 mg/kg/injection, schedule: Q01DX009 (ip), vehicle: saline with Tween-80) 3 of 6.

For `CN1C(=O)CC([Se]c2ccccc2)C1=O` (centres undefined), the survivor count (dose: 100.0 mg/kg/injection, schedule: Q04DX003 (ip), vehicle: Klucel (hydroxypropylcellulose) (HPC)) was 2 of 6; the survivor count (dose: 200.0 mg/kg/injection, schedule: Q04DX003 (ip), vehicle: Klucel (hydroxypropylcellulose) (HPC)) was 0 of 6 and 3 of 6; the survivor count (dose: 400.0 mg/kg/injection, schedule: Q04DX003 (ip), vehicle: Klucel (hydroxypropylcellulose) (HPC)) is listed as 0 of 6.

Regarding `O=P(N1CC1)(N1CC1)N1CC2CCC(CC2)C1`, the survivor count was 6 of 6 (dose: 50.0 mg/kg/injection, schedule: Q01DX009 (ip), vehicle: saline); 3 of 6 (dose: 100.0 mg/kg/injection, schedule: Q04DX003 (ip), vehicle: saline with Tween-80); 1 of 6 (dose: 200.0 mg/kg/injection, schedule: Q04DX003 (ip), vehicle: saline with Tween-80); 0 of 6 (dose: 400.0 mg/kg/injection, schedule: Q04DX003 (ip), vehicle: saline with Tween-80).

With `COc1ccc2c(ccc3c(=O)c4c([nH]c32)CCC4)n1`, the survivor count is given as 6 of 6 (dose: 100.0 mg/kg/injection, schedule: Q04DX002 (ip), vehicle: saline with Tween-80); 6 of 6 under setting [6]; 6 of 6 under setting [7].

As to `N#CC1CCCC(C#N)N1CN1C(C#N)CCCC1C#N` (centres undefined), under setting [8], the survivor count is reported as 5 of 5.

For the compound `CC1CCC(C(C)C)C(N)C1` (centres undefined), the survivor count under setting [6] was 2 of 6 and the survivor count under setting [7] is reported as 0 of 6.

Consider `Cc1ccc(C2(c3ccc(C)cc3)CCCCCC2=O)cc1`, for which the survivor count under setting [8] was 6 of 6.

For the compound `COc1cccc2c1C(=O)c1c(O)c3c(c(O)c1C2=O)C[C@@](O)(C(=O)CO)C[C@@H]3OC1CC(NC=O)C(O)C(C)O1` (some centres undefined), where the note is “dose: 1.56 mg/kg/injection, schedule: Q01DX009 (ip), vehicle: Klucel (hydroxypropylcellulose) (HPC)”, the T/C was 130 % of control [4 of 6 alive].

`Cc1ccnc(N)c1N`: under setting [2], the T/C was 128 % of control. Further, under setting [3], the survivor count was 0 of 6.

For `COc1ccc2[nH]c3c(c2c1)CNCC3`, where the note is “dose: 400.0 mg/kg/injection, schedule: Q01DX009 (ip), vehicle: saline”, the survivor count is recorded as 1 of 6.

`CNC(=O)N(C)C1=NC(O)(c2ccccc2)C(c2ccccc2)=N1` (centres undefined): the survivor count under setting [6] is 6 of 6 and the survivor count under setting [7] was 5 of 6.

Take `CSc1nn(CCC#N)c(=O)[nH]c1=O`: the survivor count (dose: 200.0 mg/kg/injection, schedule: Q01DX005 (ip), vehicle: water) was 3 of 6.

Values taken from PubChem BioAssay AID330 (DTP/NCI, 2004).
